In publication PMC10535219, “Discovery and Potential Utility of a Novel Non-Invasive Ocular Delivery Platform” (Pharmaceutics, 2023):

Assay: Biodisposition of JV-DE1 and JV-MD2 delivered via NIODP (periorbital skin) in non-human primates
Assay type: in vivo, cynomolgus monkeys
Experimental: All experiments were performed at Medicilon. […] A pen brush was used to dose each formulation with three to four circular motions for even distribution. The doses of the test articles were selected based on their solubility/concentration with the maximum deliverable volume on the periorbital skin of the animals. The administered dose was calculated by the weight difference of the pen brush before and after administration. Animals were restrained from eye rubbing in restraint chairs for 2 h after dosing, with access to food and drink. A blood sample was collected from one of the study animals at pre-dosing. For every time point of 0.5, 3, 6, and 24 h post-dose, one animal was euthanized and the ocular tissues (upper eyelid, cornea, retina, and vitreous humor) of both eyes were collected. Plasma samples were collected before each euthanization.
For the convenience of tissue processing and sample extraction, only upper eyelids were collected to represent the entirety of the periorbital tissue. Ocular tissues were homogenized by adding a 9-fold volume of 50% methanol/H2O per gram of tissue. For the LC-MS/MS sample preparation, a 50 μL aliquot of plasma, aqueous humor, vitreous humor, or tissue homogenate was thoroughly mixed with a 250 μL extraction solution of CHCl3/EtOH (1:1); then, a 210 μL supernatant of the samples was transferred to a 96-well plate after centrifugation. […]

Structure (SMILES)	retinal Cmax relative to Ki on human IP and PAF receptors (JV-DE1, Cmax by eye drops in rabbits and by NIODP in monkeys)	retinal Cmax relative to EC50 or IC50 of most mediators in the omega 3 DHA signaling cascade (JV-MD2, NHP, NIODP)
CC(C)Oc1ccc(Cc2ccc(NC3=NCCN3)cc2)cc1 [JV-DE1, 4,5-dihydro-N-[4-[[4-(1-methylethoxy)phenyl]methyl]phenyl]-1H-imadazol-2-amine]	at least 100 fold	–
CC/C=C\C/C=C\C/C=C\C/C=C\C/C=C\C/C=C\CCC(=O)O [JV-MD2, cis-4,7,10,13,16,19-docosahexaenoic acid]	–	at least 10 fold
